The assay addresses BMP-7 growth factor (GF) dimer (UniProt P18075). As to the kind of experiment: SPR; competition: PD variants (30-292, 65-292) immobilised at 500-800 RU, 100 nM BMP-7 GF injected with 0-500 nM soluble BMPRII extracellular domain, bound GF detected by a following injection of 100 nM monoclonal anti-BMP-7 GF antibody; HBS-EP; both purified. On the technique in general: Surface plasmon resonance follows binding to a sensor surface in real time, without labels.

Sequences of proteins named here, by UniProt entry; tags and fusion partners are left off. Residues count along the entry.
UniProt P18075, residues 293-431: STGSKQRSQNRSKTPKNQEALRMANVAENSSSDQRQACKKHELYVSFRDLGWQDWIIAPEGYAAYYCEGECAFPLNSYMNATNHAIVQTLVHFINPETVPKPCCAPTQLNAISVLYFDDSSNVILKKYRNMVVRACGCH

Results are given in words; binding and its absence hold for the method and conditions named. Some results given as binding are weak or reduced against the parent protein; the word gives no strength.

B1: soluble extracellular domain of BMPRII receptor (receptor, UniProt Q13873 27-150)
chain: SQNQERLCAFKDPYQQDLGIGESRISHENGTILCSKGSTCYGLWEKSKGDINLVKQGCWSHIGDPQECHYEECVVTTTPPSIQNGTYRFCCCSTDLCNVNFTENFPPPDTTPLSPPHSFNRDET
In the case of B1, the binding entry is reported as “binds”.

Values taken from paper PMC4933460.
